Test results reported in PubChem BioAssay AID720540 (National Center for Advancing Translational Sciences (NCATS), 2013).
Screen size: about 1,300 compounds; about 460 (35%) were called active. The shares of active, inactive and inconclusive entries below differ from those in the screen. The call rests on the fitted dose curve; in most records, active means well fitted inhibition curve with a large enough effect; inconclusive means small, poorly fitted or top-dose-only effect; inactive means flat fitted curve, though single readings scatter. Potencies beside an inconclusive call are fits to weak or partial responses and may not hold up.

Amino acid sequences for entries named in this document (tags omitted). A change or cut given only in a name is not applied to a line headed by its entry.
UniProt O00167: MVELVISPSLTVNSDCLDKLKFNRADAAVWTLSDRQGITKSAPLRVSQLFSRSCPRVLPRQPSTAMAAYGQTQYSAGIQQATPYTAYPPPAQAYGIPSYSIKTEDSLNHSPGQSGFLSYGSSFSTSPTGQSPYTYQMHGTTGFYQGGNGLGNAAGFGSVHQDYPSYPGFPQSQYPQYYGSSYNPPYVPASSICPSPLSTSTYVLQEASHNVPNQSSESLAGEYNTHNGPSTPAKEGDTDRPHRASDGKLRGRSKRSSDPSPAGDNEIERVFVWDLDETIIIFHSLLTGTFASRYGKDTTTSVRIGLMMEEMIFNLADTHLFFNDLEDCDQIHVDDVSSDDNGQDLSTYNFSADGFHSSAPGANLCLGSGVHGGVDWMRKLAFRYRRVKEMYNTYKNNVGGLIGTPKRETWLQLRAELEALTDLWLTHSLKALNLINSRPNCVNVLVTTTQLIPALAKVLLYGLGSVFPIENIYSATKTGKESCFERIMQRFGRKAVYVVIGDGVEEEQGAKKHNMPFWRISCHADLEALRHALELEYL

biological target: Protein phosphatase EYA2 (Homo sapiens) (UniProt O00167); experiment: qHTS for Inhibitors of the Phosphatase Activity of Eya2: Confirmatory Assay for Cherry-picked Compounds; settings: purified EYA2 phosphatase activity, qHTS confirmation; activity change, negative = inhibition: at 46.1 µM (top of the series); further: nearly all actives have a fitted effect of over 65% in size;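 on activity change, negative = inhibition: 0% = DMSO wells and -100% = EGTA control giving full inhibition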
Method in brief: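 Eya2 (0.2 uM working solution) preincubated 10 min at room temperature with compound in pH 7.5 HEPES buffer with MgCl2, BSA, DTT. OMFP added (50 uM working solution), 10 min more; fluorescence 485/525 nm, normalized to EGTA and DMSO.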
Potency means the concentration at half of the fitted maximal effect.

Structure (SMILES) | activity change, negative = inhibition | Potency
N#C/C(=C\c1ccc(OC(=O)c2ccc(Cl)s2)cc1)c1nc2ccccc2[nH]1 | inactive: -24.6% | –
CCOc1ccc2c(c1)C(c1ccc(C)cc1)=NNC(c1ccc(OC)cc1)=N2 | inconclusive: -33.3% [inhibitor] | –
COc1ccc(CC(=O)Nc2cccc(Cl)c2C)cc1S(=O)(=O)N1CCOCC1 | inactive: -7.62% | –
CCC(=O)NC(c1ccc(OC)cc1)c1cc(Cl)c2cccnc2c1O (stereo unspecified) | – | inconclusive: 0.478 µM [inhibitor, full curve]
COC(=O)c1sc2cc(C(F)(F)F)cnc2c1-c1cccnc1 | inactive: -1.68% | –
COc1ccc(C(=O)N2CCOCC2)cc1S(=O)(=O)N1CCCc2ccccc21 | inactive: -12.4% | –
O=C(O)c1ccccc1NC(=O)C1CCN(S(=O)(=O)c2ccc3c(c2)OCCO3)CC1 | – | inconclusive: 19 µM [inhibitor, partial curve]
CCOC(=O)c1cc(-c2ccc(N3CCOCC3)cc2)nn1-c1ccccc1C(=O)O | – | inconclusive: 19 µM [inhibitor, partial curve]
Cn1c(-c2ccccc2)cnc1NCc1cc(Cl)ccc1O | – | inconclusive: 21.3 µM [inhibitor, partial curve]
CCOc1ccc2nc(N3CCCC(C(=O)N4CCN(CC)CC4)C3)sc2c1 (stereo unspecified) | inactive: -10% | –
CC(C)CCNC(=O)c1onc(CSc2ccncc2)c1C(=O)NCCC(C)C | inactive: -9.87% | –
CC1CCN(C2=NN3C(=N)/C(=C\c4ccc(OC(=O)c5ccco5)cc4)C(=O)N=C3S2)CC1 | – | inconclusive: 19 µM [inhibitor, partial curve]
CCN(CC)C(=O)CC(c1ccc(OC)cc1)c1c(OC)cc(OC)c2ccc(=O)oc12 (stereo unspecified) | inactive: -8.28% | –
COc1ccc(OCc2nc3ccc(S(=O)(=O)Nc4ccccc4Cl)cc3[nH]2)cc1 | – | inconclusive: 13.5 µM [inhibitor, partial curve]
COc1ccccc1OCc1ccc(C(=O)Nc2cc(OC)c(OC)c(OC)c2)o1 | inactive: -28.2% | –
Cc1ccc(Nc2nc(N)nc(CSc3nnc(C)s3)n2)cc1 | inactive: -27.8% | –
COc1ccc([C@H]2CC(=O)C=C(c3ccnc4ccc(Cl)cc34)C2)cc1 | inactive: -22.9% | –
Cc1nc(NC(=O)c2ccccc2)sc1-c1cc(C(=O)O)nn1Cc1ccccc1 | – | inconclusive: 21.3 µM [inhibitor, single point]
Nc1ccc2nc3c(=O)[nH]c(=S)[nH]c3nc2c1 | – | active: 6.01 µM
O=C(O)c1c2c(nc3ccc(S(=O)(=O)N4CCC(C(=O)NC5CCCC5)CC4)cc13)CCCCC2 | inactive: -12.6% | –
Cc1ccc(NC(=O)/C=C/c2ccc3c(c2)OCO3)cc1S(=O)(=O)N1CCOCC1 | – | inconclusive: 7.57 µM [inhibitor, partial curve]

Individual results from the list:
For activity change, negative = inhibition, CCN(CC)C(=O)CC(c1ccc(OC)cc1)c1c(OC)cc(OC)c2ccc(=O)oc12 (stereo unspecified) shows inactive: -8.28%
For Potency, CC1CCN(C2=NN3C(=N)/C(=C\c4ccc(OC(=O)c5ccco5)cc4)C(=O)N=C3S2)CC1 shows inconclusive: 19 µM [inhibitor, partial curve]
